# Test results published in the supplement of paper PMC8728848.
# This is one part of the list.
# Experiments:
# Experiment in all cases: glycan array binding signal (z-score within array); higher = stronger binding
# Conditions in all cases: glycan notation: IUPAC condensed, linker removed
# [1] = molecular target: Neu5Ac(a2-3)Gal(b1-4)GlcNAc(b1-2)Man(a1-3)[GlcNAc(b1-2)Man(b1-4)GlcNAc(b1-2)Man(a1-6)]Man(b1-4)GlcNAc(b1-4)GlcNAc
# Procedure, shortened: (§1)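 The Consortium for Functional Glycomics database supplied 3228 glycan arrays, of which those lacking an available protein sequence were dropped. The binding signal, a within-array Z-score, was averaged across arrays of the same protein sequence and across linkers. Negative scores can be read as non-binding.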
# [2] = molecular target: Neu5Ac(a2-3)Gal(b1-4)GlcNAc(b1-2)Man(a1-3)[Neu5Ac(a2-6)Gal(b1-4)GlcNAc(b1-2)Man(a1-6)]Man(b1-4)GlcNAc(b1-4)GlcNAc
# Procedure, shortened: as §1
# [3] = molecular target: Neu5Ac(a2-3)Gal(b1-4)GlcNAc(b1-3)Gal
# Procedure, shortened: as §1
# [4] = molecular target: Neu5Ac(a2-3)Gal(b1-4)GlcNAc(b1-3)Gal(b1-3)GlcNAc
# Procedure, shortened: as §1
# [5] = molecular target: Neu5Ac(a2-3)Gal(b1-4)GlcNAc(b1-3)Gal(b1-4)GlcNAc
# Procedure, shortened: as §1
# [6] = molecular target: Neu5Ac(a2-3)Gal(b1-4)GlcNAc(b1-3)Gal(b1-4)GlcNAc(b1-3)Gal(b1-4)GlcNAc
# Procedure, shortened: as §1
# [7] = molecular target: Neu5Ac(a2-3)Gal(b1-4)GlcNAc(b1-3)Gal(b1-4)[Fuc(a1-3)]GlcNAc
# Procedure, shortened: as §1
# [8] = molecular target: Neu5Ac(a2-3)Gal(b1-4)GlcNAc(b1-3)GalNAc
# Procedure, shortened: as §1
# [9] = molecular target: Neu5Ac(a2-3)Gal(b1-4)GlcNAc(b1-6)[Gal(b1-3)]GalNAc
# Procedure, shortened: as §1
# [10] = molecular target: Neu5Ac(a2-3)Gal(b1-4)GlcNAc(b1-6)[Neu5Ac(a2-3)Gal(b1-3)]GalNAc
# Procedure, shortened: as §1
# [11] = molecular target: Neu5Ac(a2-3)Gal(b1-4)GlcNAc6S
# Procedure, shortened: as §1
# [12] = molecular target: Neu5Ac(a2-3)Gal(b1-4)[Fuc(a1-3)]GlcNAc
# Procedure, shortened: as §1
# [13] = molecular target: Neu5Ac(a2-3)Gal(b1-4)[Fuc(a1-3)]GlcNAc(b1-3)Gal
# Procedure, shortened: as §1
# [14] = molecular target: Neu5Ac(a2-3)Gal(b1-4)[Fuc(a1-3)]GlcNAc(b1-3)Gal(b1-4)GlcNAc
# Procedure, shortened: as §1
# [15] = molecular target: Neu5Ac(a2-3)Gal(b1-4)[Fuc(a1-3)]GlcNAc(b1-3)Gal(b1-4)[Fuc(a1-3)]GlcNAc(b1-3)Gal(b1-4)[Fuc(a1-3)]GlcNAc
# Procedure, shortened: as §1
# [16] = molecular target: Neu5Ac(a2-3)Gal(b1-4)[Fuc(a1-3)]GlcNAc(b1-3)GalNAc
# Procedure, shortened: as §1
# [17] = molecular target: Neu5Ac(a2-3)Gal(b1-4)[Fuc(a1-3)]GlcNAc(b1-6)[Gal(b1-3)]GalNAc
# Procedure, shortened: as §1
# [18] = molecular target: Neu5Ac(a2-3)Gal(b1-4)[Fuc(a1-3)]GlcNAc(b1-6)[Neu5Ac(a2-3)Gal(b1-3)]GalNAc
# Procedure, shortened: as §1
# [19] = molecular target: Neu5Ac(a2-3)Gal(b1-4)[Fuc(a1-3)]GlcNAc6S
# Procedure, shortened: as §1
# [20] = molecular target: Neu5Ac(a2-3)Gal6S(b1-4)GlcNAc
# Procedure, shortened: as §1
# [21] = molecular target: Neu5Ac(a2-3)Gal6S(b1-4)[Fuc(a1-3)]GlcNAc
# Procedure, shortened: as §1
# Neu5Ac(a2-3)GalNAc = molecular target: Neu5Ac(a2-3)GalNAc
# Procedure, shortened: as §1
# [22] = molecular target: Neu5Ac(a2-3)GalNAc(b1-4)GlcNAc
# Procedure, shortened: as §1
# [23] = molecular target: Neu5Ac(a2-3)[GalNAc(b1-4)]Gal(b1-4)Glc
# Procedure, shortened: as §1
# [24] = molecular target: Neu5Ac(a2-3)[GalNAc(b1-4)]Gal(b1-4)GlcNAc
# Procedure, shortened: as §1
# [25] = molecular target: Neu5Ac(a2-3)[GalNAc(b1-4)]Gal(b1-4)GlcNAc(b1-3)GalNAc
# Procedure, shortened: as §1
# [26] = molecular target: Neu5Ac(a2-3)[Neu5Ac(a2-6)]GalNAc
# Procedure, shortened: as §1
# Neu5Ac(a2-6)Gal = molecular target: Neu5Ac(a2-6)Gal
# Procedure, shortened: as §1
# [27] = molecular target: Neu5Ac(a2-6)Gal(b1-3)GlcNAc(b1-3)[Gal(b1-4)GlcNAc(b1-6)]Gal(b1-4)Glc
# Procedure, shortened: as §1
# Neu5Ac(a2-6)Gal(b1-4)Glc = molecular target: Neu5Ac(a2-6)Gal(b1-4)Glc
# Procedure, shortened: as §1
# [28] = molecular target: Neu5Ac(a2-6)Gal(b1-4)GlcNAc
# Procedure, shortened: as §1
# [29] = molecular target: Neu5Ac(a2-6)Gal(b1-4)GlcNAc(b1-2)Man(a1-3)Man(b1-4)GlcNAc(b1-4)GlcNAc
# Procedure, shortened: as §1
# [30] = molecular target: Neu5Ac(a2-6)Gal(b1-4)GlcNAc(b1-2)Man(a1-3)[Gal(b1-4)GlcNAc(b1-2)Man(a1-6)]Man(b1-4)GlcNAc(b1-4)GlcNAc
# Procedure, shortened: as §1
# [31] = molecular target: Neu5Ac(a2-6)Gal(b1-4)GlcNAc(b1-2)Man(a1-3)[GlcNAc(b1-2)Man(a1-6)]Man(b1-4)GlcNAc(b1-4)GlcNAc
# Procedure, shortened: as §1
# [32] = molecular target: Neu5Ac(a2-6)Gal(b1-4)GlcNAc(b1-2)Man(a1-3)[GlcNAc(b1-2)Man(b1-4)GlcNAc(b1-2)Man(a1-6)]Man(b1-4)GlcNAc(b1-4)GlcNAc
# Procedure, shortened: as §1
# [33] = molecular target: Neu5Ac(a2-6)Gal(b1-4)GlcNAc(b1-2)Man(a1-3)[Man(a1-6)]Man(b1-4)GlcNAc(b1-4)GlcNAc
# Procedure, shortened: as §1
# [34] = molecular target: Neu5Ac(a2-6)Gal(b1-4)GlcNAc(b1-2)Man(a1-3)[Neu5Ac(a2-6)Gal(b1-4)GlcNAc(b1-2)Man(a1-6)]Man(b1-4)GlcNAc(b1-4)GlcNAc
# Procedure, shortened: as §1
# [35] = molecular target: Neu5Ac(a2-6)Gal(b1-4)GlcNAc(b1-2)Man(a1-6)Man(b1-4)GlcNAc(b1-4)GlcNAc
# Procedure, shortened: as §1
# [36] = molecular target: Neu5Ac(a2-6)Gal(b1-4)GlcNAc(b1-2)Man(a1-6)[Gal(b1-4)GlcNAc(b1-2)Man(a1-3)]Man(b1-4)GlcNAc(b1-4)GlcNAc
# Procedure, shortened: as §1
# [37] = molecular target: Neu5Ac(a2-6)Gal(b1-4)GlcNAc(b1-2)Man(a1-6)[GlcNAc(b1-2)Man(a1-3)]Man(b1-4)GlcNAc(b1-4)GlcNAc
# Procedure, shortened: as §1
# [38] = molecular target: Neu5Ac(a2-6)Gal(b1-4)GlcNAc(b1-2)Man(a1-6)[Man(a1-3)]Man(b1-4)GlcNAc(b1-4)GlcNAc
# Procedure, shortened: as §1
# [39] = molecular target: Neu5Ac(a2-6)Gal(b1-4)GlcNAc(b1-3)Gal(b1-3)GlcNAc
# Procedure, shortened: as §1
# [40] = molecular target: Neu5Ac(a2-6)Gal(b1-4)GlcNAc(b1-3)Gal(b1-4)GlcNAc
# Procedure, shortened: as §1
# [41] = molecular target: Neu5Ac(a2-6)Gal(b1-4)GlcNAc(b1-3)Gal(b1-4)GlcNAc(b1-3)Gal(b1-4)GlcNAc
# Procedure, shortened: as §1
# [42] = molecular target: Neu5Ac(a2-6)Gal(b1-4)GlcNAc(b1-3)Gal(b1-4)[Fuc(a1-3)]GlcNAc(b1-3)Gal(b1-4)[Fuc(a1-3)]GlcNAc
# Procedure, shortened: as §1
binder,measurement,setting,value
"rPitB (Streptococcus pneumoniae), A0A0I7U739 (protein) MSEIEIINAKKIYHDVPVIENLNITIPKGSLFTLLGASGCGKTTLLRMIAGFNSIKDGEFYFDDTKINNMEPSKRNIGLVFQNYAIFPHLTVRDNVAFGLMQKKVPKEELIQQTNKYLELMQIAQYAD",glycan array binding signal (z-score),[1],-0.14
same,glycan array binding signal (z-score),[2],-0.486
same,glycan array binding signal (z-score),[3],0.094
same,glycan array binding signal (z-score),[4],-0.394
same,glycan array binding signal (z-score),[5],0.143
same,glycan array binding signal (z-score),[6],-0.412
same,glycan array binding signal (z-score),[7],0.277
same,glycan array binding signal (z-score),[8],-0.926
same,glycan array binding signal (z-score),[9],0.244
same,glycan array binding signal (z-score),[10],0.027
same,glycan array binding signal (z-score),[11],-0.589
same,glycan array binding signal (z-score),[12],-0.612
same,glycan array binding signal (z-score),[13],-0.738
same,glycan array binding signal (z-score),[14],1.07
same,glycan array binding signal (z-score),[15],0.046
same,glycan array binding signal (z-score),[16],4.13
same,glycan array binding signal (z-score),[17],2.86
same,glycan array binding signal (z-score),[18],-0.266
same,glycan array binding signal (z-score),[19],-0.021
same,glycan array binding signal (z-score),[20],-0.599
same,glycan array binding signal (z-score),[21],-0.213
same,glycan array binding signal (z-score),Neu5Ac(a2-3)GalNAc,0.235
same,glycan array binding signal (z-score),[22],-0.428
same,glycan array binding signal (z-score),[23],0.073
same,glycan array binding signal (z-score),[24],-0.299
same,glycan array binding signal (z-score),[25],-0.463
same,glycan array binding signal (z-score),[26],-0.61
same,glycan array binding signal (z-score),Neu5Ac(a2-6)Gal,-0.654
same,glycan array binding signal (z-score),[27],-0.035
same,glycan array binding signal (z-score),Neu5Ac(a2-6)Gal(b1-4)Glc,-0.185
same,glycan array binding signal (z-score),[28],-0.5
same,glycan array binding signal (z-score),[29],-0.178
same,glycan array binding signal (z-score),[30],0.459
same,glycan array binding signal (z-score),[31],0.334
same,glycan array binding signal (z-score),[32],-0.255
same,glycan array binding signal (z-score),[33],0.505
same,glycan array binding signal (z-score),[34],-0.032
same,glycan array binding signal (z-score),[35],0.334
same,glycan array binding signal (z-score),[36],0.367
same,glycan array binding signal (z-score),[37],0.118
same,glycan array binding signal (z-score),[38],-0.154
same,glycan array binding signal (z-score),[39],0.35
same,glycan array binding signal (z-score),[40],0.046
same,glycan array binding signal (z-score),[41],0.323
same,glycan array binding signal (z-score),[42],0.032

# Given with bars between the fields: entries from further up
binder | measurement | setting | value
rPitB (Streptococcus pneumoniae), A0A0I7U739 (protein) MSEIEIINAKKIYHDVPVIENLNITIPKGSLFTLLGASGCGKTTLLRMIAGFNSIKDGEFYFDDTKINNMEPSKRNIGLVFQNYAIFPHLTVRDNVAFGLMQKKVPKEELIQQTNKYLELMQIAQYAD | glycan array binding signal (z-score) | [34] | -0.032
same | glycan array binding signal (z-score) | [35] | 0.334
same | glycan array binding signal (z-score) | [36] | 0.367
same | glycan array binding signal (z-score) | [37] | 0.118
